The values that follow come from article PMC6033098.

By UniProt entry, the sequences of proteins in these tests, tags left out.
UniProt F1MDH3: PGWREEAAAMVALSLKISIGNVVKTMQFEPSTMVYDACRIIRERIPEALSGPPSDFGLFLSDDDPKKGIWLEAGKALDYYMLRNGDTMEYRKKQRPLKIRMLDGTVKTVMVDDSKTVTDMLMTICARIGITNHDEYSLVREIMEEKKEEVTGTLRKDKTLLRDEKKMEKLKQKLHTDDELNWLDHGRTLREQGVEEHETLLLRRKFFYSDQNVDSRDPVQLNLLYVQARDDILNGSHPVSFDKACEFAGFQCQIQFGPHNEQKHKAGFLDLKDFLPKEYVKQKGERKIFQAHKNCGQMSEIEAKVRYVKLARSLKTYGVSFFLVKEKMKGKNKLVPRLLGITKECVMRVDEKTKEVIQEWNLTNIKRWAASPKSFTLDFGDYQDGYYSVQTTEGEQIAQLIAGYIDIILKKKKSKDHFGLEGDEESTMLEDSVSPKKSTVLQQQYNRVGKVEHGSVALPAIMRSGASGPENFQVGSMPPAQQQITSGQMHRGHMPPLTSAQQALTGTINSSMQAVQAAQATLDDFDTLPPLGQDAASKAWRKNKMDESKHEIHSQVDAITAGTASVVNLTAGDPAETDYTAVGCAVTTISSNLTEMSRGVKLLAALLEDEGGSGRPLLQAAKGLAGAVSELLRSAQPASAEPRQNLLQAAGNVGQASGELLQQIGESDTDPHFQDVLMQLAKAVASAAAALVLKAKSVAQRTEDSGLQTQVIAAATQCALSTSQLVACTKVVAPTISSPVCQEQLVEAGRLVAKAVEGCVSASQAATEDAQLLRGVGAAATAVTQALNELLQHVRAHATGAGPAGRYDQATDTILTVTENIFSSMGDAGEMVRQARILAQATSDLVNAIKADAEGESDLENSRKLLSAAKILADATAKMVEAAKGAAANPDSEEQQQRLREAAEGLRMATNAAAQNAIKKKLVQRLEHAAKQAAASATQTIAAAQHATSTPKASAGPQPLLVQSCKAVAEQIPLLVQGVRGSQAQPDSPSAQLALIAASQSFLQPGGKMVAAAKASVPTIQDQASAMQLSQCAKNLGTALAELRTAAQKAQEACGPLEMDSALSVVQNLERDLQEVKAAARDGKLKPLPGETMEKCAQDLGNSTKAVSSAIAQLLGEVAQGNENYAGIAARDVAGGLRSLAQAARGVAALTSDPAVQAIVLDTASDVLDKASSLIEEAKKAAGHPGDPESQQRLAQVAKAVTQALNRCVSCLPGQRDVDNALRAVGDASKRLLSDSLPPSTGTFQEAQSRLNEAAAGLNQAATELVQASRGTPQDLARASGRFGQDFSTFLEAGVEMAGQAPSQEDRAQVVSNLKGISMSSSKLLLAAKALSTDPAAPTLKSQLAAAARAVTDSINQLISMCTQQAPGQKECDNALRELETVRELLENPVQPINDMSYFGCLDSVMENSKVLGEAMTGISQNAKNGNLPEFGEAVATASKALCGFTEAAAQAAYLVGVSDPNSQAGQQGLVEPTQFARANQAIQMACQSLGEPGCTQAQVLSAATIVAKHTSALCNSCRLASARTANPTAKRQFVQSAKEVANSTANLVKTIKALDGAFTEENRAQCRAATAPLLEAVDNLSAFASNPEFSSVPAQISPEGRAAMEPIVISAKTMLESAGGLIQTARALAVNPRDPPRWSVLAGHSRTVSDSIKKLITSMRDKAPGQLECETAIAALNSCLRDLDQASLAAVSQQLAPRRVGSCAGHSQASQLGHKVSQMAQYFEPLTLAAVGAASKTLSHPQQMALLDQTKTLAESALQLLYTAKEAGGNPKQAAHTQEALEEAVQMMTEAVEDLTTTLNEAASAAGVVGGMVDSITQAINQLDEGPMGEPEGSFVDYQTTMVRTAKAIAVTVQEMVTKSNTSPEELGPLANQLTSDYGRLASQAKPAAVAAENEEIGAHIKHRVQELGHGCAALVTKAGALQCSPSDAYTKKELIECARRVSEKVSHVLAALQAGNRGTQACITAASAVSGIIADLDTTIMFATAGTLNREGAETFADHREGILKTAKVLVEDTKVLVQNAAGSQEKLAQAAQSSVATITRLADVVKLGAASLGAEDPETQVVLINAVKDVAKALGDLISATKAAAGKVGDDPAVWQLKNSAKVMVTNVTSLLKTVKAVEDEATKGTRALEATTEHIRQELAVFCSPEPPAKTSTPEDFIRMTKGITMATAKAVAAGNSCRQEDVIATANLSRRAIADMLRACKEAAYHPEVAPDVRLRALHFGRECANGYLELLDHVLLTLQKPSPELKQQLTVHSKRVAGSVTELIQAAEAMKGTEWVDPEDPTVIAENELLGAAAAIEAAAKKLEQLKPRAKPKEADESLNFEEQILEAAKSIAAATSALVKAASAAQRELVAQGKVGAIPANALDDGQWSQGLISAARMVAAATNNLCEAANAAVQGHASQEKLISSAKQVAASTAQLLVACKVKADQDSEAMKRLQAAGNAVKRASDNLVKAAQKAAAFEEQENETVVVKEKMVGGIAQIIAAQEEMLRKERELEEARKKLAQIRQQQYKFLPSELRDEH

The experiment has as its target T1, myc‐BirA*‐CLASP1_(1256–1538) (UniProt Q7Z460).
T1 sequence: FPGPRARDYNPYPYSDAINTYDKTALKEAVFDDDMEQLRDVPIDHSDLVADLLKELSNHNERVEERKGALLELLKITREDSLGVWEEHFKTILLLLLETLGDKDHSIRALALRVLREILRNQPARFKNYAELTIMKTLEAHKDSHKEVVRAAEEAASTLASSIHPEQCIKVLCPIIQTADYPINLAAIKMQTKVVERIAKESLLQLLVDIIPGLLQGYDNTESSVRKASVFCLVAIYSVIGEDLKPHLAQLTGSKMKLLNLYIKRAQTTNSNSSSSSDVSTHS
In words: proximity labelling; BioID: myc‐BirA* fusion protein (bait) expressed in TaC12 cells, 50 μM biotin, stringent lysis, streptavidin Dynabeads, on‐bead tryptic digest and mass spectrometry; control: TaC12 WT cells.

These are yes or no findings as the source states them, for the method shown. In cells and extracts the contact can be indirect. These calls come from enrichment with a bait or labelling near it, and not all partners need be listed. No binding means not detected with the bait. Where a sequence is shown, tags or fusion partners need not be part of it.

Turning to Talin‐1 (from UniProt F1MDH3 1-2527), the binding entry was “no binding”.
